Drawing on article PMC10287724, “Structural basis of the interaction between BCL9-Pygo and LDB-SSBP complexes in assembling the Wnt enhanceosome” (Nature Communications, 2023), this text covers binding for 1 molecule.

No constants are given. Whether binding was seen depends on the method and setting. Some entries that bind do so weakly or less than the wild type. Sequences can lack the tags named with a protein.

The test deals with T1, human LDB1(56–285), tags removed (human) (UniProt Q86U70).
T1 sequence: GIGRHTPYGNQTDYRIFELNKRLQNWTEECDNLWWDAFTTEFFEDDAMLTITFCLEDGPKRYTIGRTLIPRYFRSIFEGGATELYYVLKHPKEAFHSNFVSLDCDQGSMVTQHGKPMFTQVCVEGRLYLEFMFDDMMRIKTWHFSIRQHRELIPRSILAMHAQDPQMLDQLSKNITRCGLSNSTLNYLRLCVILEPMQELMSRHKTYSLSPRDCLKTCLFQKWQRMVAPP
Kind of test: crystal structure; Pygo2(58–84) peptide incubated with LDB1-SSBP2 (co-expressed, co-purified) at 5:1; hanging drop, 100 mM Li2SO4, 100 mM sodium citrate pH 5.6, 1% PEG400, 10 mM DTT, microseeding; 2.45 Å; both purified.

B1: human SSBP2(1–94), tag removed (domain or fragment, UniProt P81877 1-94, looked up)
chain: MYGKGKSNSSAVPSDSQAREKLALYVYEYLLHVGAQKSAQTFLSEIRWEKNITLGEPPGFLHSWWCVFWDLYCAAPERRETCEHSSEAKAFHDY
notes: chain of the crystallised complex; not shown: His, N-terminal, cleaved
As for B1, the binding entry was “binds”.
